According to PMC7819943, “Rice protein-binding microarrays: a tool to detect cis-acting elements near promoter regions in rice”:
This is one part of the list.

Each sequence was assayed against T1, OsSMF1 (Oryza sativa, UniProt Q6ZLB0 1-436) (assay: protein-binding microarray (RPBM); PBS, 2% BSA, 51.3 ng/ul salmon testes DNA, 50 uM zinc acetate, 200 nM TF, 25 C, 1 h; high values mean tight binding). Conditions: protein: recombinant; tags: N-terminal polyhistidine and DsRed monomer fusion (pET32a); chain copies: 2; label: CyDye5-dUTP incorporated in the synthesized complementary strand; 3' TTTTT single-stranded linker to array surface; dsDNA, one strand shown.
T1 sequence: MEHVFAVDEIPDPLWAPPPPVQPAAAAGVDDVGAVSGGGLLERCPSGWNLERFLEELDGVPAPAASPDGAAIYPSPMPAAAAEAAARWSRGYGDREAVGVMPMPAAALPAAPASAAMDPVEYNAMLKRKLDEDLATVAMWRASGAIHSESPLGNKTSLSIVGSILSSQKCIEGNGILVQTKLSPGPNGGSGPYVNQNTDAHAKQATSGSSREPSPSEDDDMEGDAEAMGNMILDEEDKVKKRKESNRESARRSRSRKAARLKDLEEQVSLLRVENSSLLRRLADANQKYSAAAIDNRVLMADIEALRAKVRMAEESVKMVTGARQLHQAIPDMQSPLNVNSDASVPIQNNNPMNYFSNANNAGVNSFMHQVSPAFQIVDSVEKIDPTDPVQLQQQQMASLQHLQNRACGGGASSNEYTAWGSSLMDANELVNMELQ
In short: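 Using Ni–NTA, transcription factors fused N-terminally to polyhistidine and DsRed were purified after expression in E. coli BL21-CodonPlus. These were incubated at 200 nM with a blocked, double-stranded custom Agilent array for 1 h at 25 °C in a buffer containing 50 µM zinc acetate, and the array was washed. The binding signal is per-feature fluorescence intensity (arbitrary units) on an Axon 4000B scanner.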

Sequence | binding signal
TGCATGCTTGCCGCTAGGCGCTGACTGGTGACGCCTGTTGCGGAGTCACCTAGTGCAG | 6350 fluorescence intensity (a.u.)
CTATAGGCTCTCTACAAGAGATCTATGTCAGCATATTTTCCGGAGTCACCTAGTGCAG | 6250 fluorescence intensity (a.u.)
AAATTCAGCATTCCTGGTTCAGCTTAATGCTTTGCTTACGCGGAGTCACCTAGTGCAG | 4100 fluorescence intensity (a.u.)
CATTATGCATCTTCTATTCCTGACTTCATTGACTGGTCTCCGGAGTCACCTAGTGCAG | 3250 fluorescence intensity (a.u.)
GCGTCTCTACTCCTCTCCCTGCATCTGGTATACGTATCTTCGGAGTCACCTAGTGCAG | 3170 fluorescence intensity (a.u.)
GTCCAACTCTTATCAACCGATTCATGGACACTTTAAATGTCGGAGTCACCTAGTGCAG | 3230 fluorescence intensity (a.u.)
CATGCGCCCACCTACATGTGAGCATGTGTATTGTCCTGAACGGAGTCACCTAGTGCAG | 3390 fluorescence intensity (a.u.)
GAGCCTTGAATATATCGTGGACCATGTTGGAGCAGAAAATCGGAGTCACCTAGTGCAG | 3470 fluorescence intensity (a.u.)
AAAGAATGACGATATGATGTGAGAAGTTTGTGAAGACTTGCGGAGTCACCTAGTGCAG | 41100 fluorescence intensity (a.u.)
AGGCGAGCGAGGCGGGTGGGCGGGGAGCGAACCAACGACGCGGAGTCACCTAGTGCAG | 4420 fluorescence intensity (a.u.)
TTGAGAAAGGTTCTAGCGGATGAAGATTCTAGAAGAAGCTCGGAGTCACCTAGTGCAG | 30600 fluorescence intensity (a.u.)
CCCGGTGTGTCACCGGTCTATAAGAGACCCCTGTACTCCTCGGAGTCACCTAGTGCAG | 3640 fluorescence intensity (a.u.)
AAAGTAAGATATTTATACTGTCCTTCCATACTTGTGACGTCGGAGTCACCTAGTGCAG | 3650 fluorescence intensity (a.u.)
GACGTGTTCCTCTGCAACGTCATGCTCGCTGCGTACGTCTCGGAGTCACCTAGTGCAG | 8520 fluorescence intensity (a.u.)
CCAGTATATGTGTATGTGTGCTTACCAGTGTTTTAAATCGCGGAGTCACCTAGTGCAG | 3620 fluorescence intensity (a.u.)
GCTCGTCGTCGCCACCTCACCACCACACACGCGCAGCCAACGGAGTCACCTAGTGCAG | 5390 fluorescence intensity (a.u.)
TCATCAAGTGACTAAATTCGGCCACCTCACCATCGTACCACGGAGTCACCTAGTGCAG | 5870 fluorescence intensity (a.u.)
ACAGGCATTAGCCAAAGGTCCTTGTCACTGAGTAAGTGGGCGGAGTCACCTAGTGCAG | 3720 fluorescence intensity (a.u.)
GAGCGGCCAAACCCTCGACAAGCATCGTCAGCAGCAGCAGCGGAGTCACCTAGTGCAG | 3340 fluorescence intensity (a.u.)
TGTCCTCTAATTTCGTTTTGCACTCGCTTTCCACCGCTACCGGAGTCACCTAGTGCAG | 30400 fluorescence intensity (a.u.)
ACGTATAGAGATACATACACCGATACACGTACGTACGTACCGGAGTCACCTAGTGCAG | 5340 fluorescence intensity (a.u.)

Sequence | binding signal
TGGCCACGTCTCAATCTCTCTCTCTCGCGCTCTCCTCTCCCGGAGTCACCTAGTGCAG | 4650 fluorescence intensity (a.u.)
AGGGAGGGCGCAACGTGTGGGTGATCGTGCATTAGCGCTCCGGAGTCACCTAGTGCAG | 3150 fluorescence intensity (a.u.)
TCAAGCGCAGACGCGTGGTGTGGTTGTATTTTCCTTTTCCCGGAGTCACCTAGTGCAG | 4200 fluorescence intensity (a.u.)
GGTGTGGCGCTGCAGTGTTTTGATACGTGGAAATTGTCCGCGGAGTCACCTAGTGCAG | 3280 fluorescence intensity (a.u.)
TTTACGTGATCCTCTTTTCCTCAGAGGCTCAGACGTCAGTCGGAGTCACCTAGTGCAG | 3280 fluorescence intensity (a.u.)
ATCTCCATCTGGCGAGCAGAGGCCGGGGAGGGAGGGGCGCCGGAGTCACCTAGTGCAG | 3870 fluorescence intensity (a.u.)
GGGTCCTATGCTGACTCAGCAGCCACGTAGGATAAAACCGCGGAGTCACCTAGTGCAG | 32800 fluorescence intensity (a.u.)
TCTCCGAAACATTACGTGGTATGCATGTTAGAGCAGGTACCGGAGTCACCTAGTGCAG | 4120 fluorescence intensity (a.u.)
CCTCAAGGACAAATGATTGATTTACCTATTCAAAGCAATTCGGAGTCACCTAGTGCAG | 23300 fluorescence intensity (a.u.)
CACGTTCGCCGTAACCACGTCAGGCCGCCTCTCCTCAGCGCGGAGTCACCTAGTGCAG | 11800 fluorescence intensity (a.u.)
AGTAACCAAACCAGATAGTTAGAAAATCCTGCAACTCTGCCGGAGTCACCTAGTGCAG | 7700 fluorescence intensity (a.u.)
ATATGTATGTATATATATAGATACGTATATGTGTATATATCGGAGTCACCTAGTGCAG | 3570 fluorescence intensity (a.u.)
GAACACGGCCACGGTGGTGACCATGATGGCACCCGGCAACCGGAGTCACCTAGTGCAG | 3310 fluorescence intensity (a.u.)
TGCGGATCGAGCCAAAAGACACTTTGCTCCAGTCACGAAGCGGAGTCACCTAGTGCAG | 3320 fluorescence intensity (a.u.)
CCCCACCGTCTCATCCCAGCTCAGCTCAGCTCTGCCTCCGCGGAGTCACCTAGTGCAG | 3540 fluorescence intensity (a.u.)
ACCATCCGAGCTGTCAAGATCCGACGTGGGTTGTGAAGGCCGGAGTCACCTAGTGCAG | 8700 fluorescence intensity (a.u.)
CTAGCAACGCGCGATTCCCGCACTGCCGCGGCATCATCTGCGGAGTCACCTAGTGCAG | 3460 fluorescence intensity (a.u.)
AGAGGAAGTTGACAACATGTCACGCGTCAGCGACACGATGCGGAGTCACCTAGTGCAG | 5240 fluorescence intensity (a.u.)
TTTCTCACCTACTACTTTCGCTGGCCGGTTATACGAAACACGGAGTCACCTAGTGCAG | 3510 fluorescence intensity (a.u.)
GCTGTGAGCTTGTGACTACTATTTGTCATTGTTTTAAAACCGGAGTCACCTAGTGCAG | 3670 fluorescence intensity (a.u.)
TAGTCAATGAAGCCACATAGGCACCACATCAACCAAAACCCGGAGTCACCTAGTGCAG | 6580 fluorescence intensity (a.u.)

Random excerpt: 2 records from the list, in no set order.
Sequence | binding signal
TAGTCAATGAAGCCACATAGGCACCACATCAACCAAAACCCGGAGTCACCTAGTGCAG | 6580 fluorescence intensity (a.u.)
GAACACGGCCACGGTGGTGACCATGATGGCACCCGGCAACCGGAGTCACCTAGTGCAG | 3310 fluorescence intensity (a.u.)
